Data reported in paper PMC10269545.
Results are given in words; binding and its absence hold for the method and conditions named. Binding seen in cells or lysates may run through a third protein. Binding can be weak; no strength is given.

Chains of the proteins cited; added tags and fusions are not shown.
UniProt P40292: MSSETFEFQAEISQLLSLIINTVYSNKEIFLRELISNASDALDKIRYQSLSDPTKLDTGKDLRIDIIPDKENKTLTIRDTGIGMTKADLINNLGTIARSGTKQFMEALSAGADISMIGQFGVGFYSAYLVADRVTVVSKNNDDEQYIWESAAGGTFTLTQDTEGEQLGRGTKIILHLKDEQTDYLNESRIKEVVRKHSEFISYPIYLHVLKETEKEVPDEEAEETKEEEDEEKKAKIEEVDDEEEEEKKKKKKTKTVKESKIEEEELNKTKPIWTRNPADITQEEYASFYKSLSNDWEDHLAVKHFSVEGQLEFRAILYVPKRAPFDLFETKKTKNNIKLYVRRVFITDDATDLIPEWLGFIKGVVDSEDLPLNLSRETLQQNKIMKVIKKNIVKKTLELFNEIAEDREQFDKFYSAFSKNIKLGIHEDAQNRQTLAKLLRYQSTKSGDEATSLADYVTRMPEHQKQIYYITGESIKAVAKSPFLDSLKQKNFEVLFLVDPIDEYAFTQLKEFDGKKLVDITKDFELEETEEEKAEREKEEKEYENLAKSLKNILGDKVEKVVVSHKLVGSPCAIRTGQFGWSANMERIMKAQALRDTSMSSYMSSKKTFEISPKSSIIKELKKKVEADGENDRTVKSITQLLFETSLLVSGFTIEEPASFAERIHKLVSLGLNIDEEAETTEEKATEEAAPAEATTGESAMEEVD

Target: SdeA::GFP fusion protein (A. fumigatus Δ9-fatty acid desaturase SdeA with C-terminal GFP) (Aspergillus fumigatus) (UniProt B0YB43)
Assay: co-IP; GFP-Trap agarose resin on extracts of the sdeA::GFP strain (wild-type strain as control); mycelia grown in MM (1% glucose) 24 h at 30°C, control at 30°C or heat shock at 48°C for 15, 30 and 60 min; blots with α-GFP and α-Hsp90

In the case of “A. fumigatus Hsp90 (from UniProt P40292 1-706)”, the binding is reported as “binds”.
